# Values of other authors, collected in patent US7691392B2 (Kosan Biosciences Incorporated, priority 2005, dated 2010).
# For at least one compound, name, drawing or mass did not settle the structure.
# System: multiple myeloma
# Conditions: the patient later treated at 275 mg/m^2 17-AAG; cited from earlier work
compound,measurement,value
C[C@@H]1C[C@H]2[C@@H]3CCC4=CC(=O)C=C[C@]4(C)[C@@]3(F)[C@@H](O)C[C@]2(C)[C@@]1(O)C(=O)CO [dexamethasone],response to prior regimen,progressive disease
